Data taken from publication PMC7862700.
The entries are a selection whose mix differs from that of the whole data set. At the low end of the ranking the order means little.

Chains of the proteins cited; added tags and fusions are not shown. Lines headed by an entry give the natural chain unless they say otherwise; changes in a name come on top.
UniProt Q9Y603: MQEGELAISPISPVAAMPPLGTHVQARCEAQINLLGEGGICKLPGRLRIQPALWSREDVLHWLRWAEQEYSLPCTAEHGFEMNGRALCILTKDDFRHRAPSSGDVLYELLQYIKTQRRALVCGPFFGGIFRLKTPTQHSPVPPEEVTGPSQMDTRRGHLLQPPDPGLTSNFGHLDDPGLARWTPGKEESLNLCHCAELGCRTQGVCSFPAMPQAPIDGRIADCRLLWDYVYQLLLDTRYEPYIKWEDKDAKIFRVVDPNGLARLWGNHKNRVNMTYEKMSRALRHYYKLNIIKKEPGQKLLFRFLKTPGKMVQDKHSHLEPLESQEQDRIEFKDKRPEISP
UniProt P41212: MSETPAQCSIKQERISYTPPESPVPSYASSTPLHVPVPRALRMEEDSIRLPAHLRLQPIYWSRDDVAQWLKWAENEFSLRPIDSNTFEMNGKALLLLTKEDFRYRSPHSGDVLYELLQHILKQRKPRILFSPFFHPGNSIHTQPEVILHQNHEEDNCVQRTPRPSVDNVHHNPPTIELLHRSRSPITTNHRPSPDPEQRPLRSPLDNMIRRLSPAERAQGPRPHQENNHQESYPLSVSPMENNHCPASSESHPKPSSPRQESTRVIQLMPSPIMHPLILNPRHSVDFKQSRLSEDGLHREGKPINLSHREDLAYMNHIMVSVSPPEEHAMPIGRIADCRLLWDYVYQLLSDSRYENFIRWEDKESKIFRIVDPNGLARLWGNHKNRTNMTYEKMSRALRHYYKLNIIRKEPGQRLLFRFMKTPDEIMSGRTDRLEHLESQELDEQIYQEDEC

How the values were obtained:
[1] = molecular target: ETV7 (UniProt Q9Y603); assay: DAPPL (digital affinity profiling via proximity ligation, sequencing); conditions: 10 mM Tris-HCl pH 7.5, 50 mM NaCl, 1 mM DTT, 4% glycerol, room temperature, 30 min; GST-TFs on glutathione beads, 16-mer random dsDNA library, 0.1% …; high values mean tight binding; double strand, one strand shown; scale: fold enrichment (6-mer frequency, TF over GST control)
[2] = molecular target: ETV6 (UniProt P41212); assay: as above; conditions: 10 mM Tris-HCl pH 7.5, 50 mM NaCl, 1 mM DTT, 4% glycerol, room temperature, 30 min; GST-TFs on glutathione beads, 16-mer random dsDNA library, 0.1% …; high values mean tight binding; double strand, one strand shown; scale: fold enrichment (6-mer frequency, TF over GST control)

| Sequence | binding signal [1] | binding signal [2] |
| --- | --- | --- |
| GACTTG | 0.86 | 0.853 |
| CCCCAC | 1.11 | – |
| CCGAAC | 1.14 | 1.28 |
| AAGCAT | 1.14 | 1.14 |
| CCCCAG | 0.852 | – |
| CATGCA | 1.03 | 1.18 |
| ATGGGG | 0.888 | – |
| TTACTA | 1.36 | – |
| CACGGA | 0.956 | – |
| TACAAA | 1.11 | – |
| ACACCA | 0.992 | 0.989 |
| GACCGC | 0.849 | 0.969 |
| TATGAG | 0.983 | 0.925 |
| ATAGCC | 0.999 | 0.962 |
| ACAAAT | 1.14 | 1.17 |
| AATCAC | 1.02 | – |
| GAATGA | 0.909 | 1.02 |
| TGGAAC | 0.962 | 0.939 |
| ATCCCG | 1.27 | 1.52 |
| CATTTG | 1.3 | 1.21 |
| TATTTG | 1.52 | – |
| GATCCC | 0.991 | – |
| ACATGA | 0.884 | 0.948 |

| Sequence | binding signal [1] | binding signal [2] |
| --- | --- | --- |
| TAACTG | 1.28 | 1.26 |
| TGATTA | 1.05 | – |
| TCATAG | 0.966 | 0.817 |
| ACTGTC | 0.978 | 0.928 |
| ATAGTC | 0.945 | 0.997 |
| AACGCC | 0.942 | – |
| GCGTAT | 0.955 | 0.891 |
| GCGATT | 0.916 | 0.926 |
| AGAACC | 0.986 | 0.931 |
| CATGCC | 0.967 | – |
| CAGCAC | 0.971 | 0.918 |
| CTACAC | 1.25 | 1.36 |
| GTGTCT | 0.926 | 0.976 |
| CGAACC | 1.11 | 1.1 |
| GTATGA | 0.964 | 0.923 |
| AAGTTC | 1.4 | 1.52 |
| TGGTGA | 0.988 | 0.921 |
| CTAAGG | 0.946 | 0.938 |
| CCCTTG | 1.18 | 1.17 |
| GAAAGC | 0.877 | 0.91 |
| ACAAGT | 0.954 | 0.983 |
| CAACTA | 1.24 | 1.25 |
| TGTGGT | 1.11 | 0.97 |

Two entries picked at random from the list so far:

| Sequence | binding signal [1] | binding signal [2] |
| --- | --- | --- |
| CAGCAC | 0.971 | 0.918 |
| GTGTCT | 0.926 | 0.976 |
